Data: patent US20200231681A1
Results are given in words; binding and its absence hold for the method and conditions named. Some binding calls cover weakened binding; strength is not graded here.

What was measured:
[1] = biological target: cynomolgus monkey c-Met ECD (SiNo. Biological, 90304-CO8H) (cynomolgus monkey); experiment: SPR (BIAcore)
[2] = biological target: cynomolgus monkey c-Met ECD (SiNo. Biological, 90304-CO8H) (cynomolgus monkey); experiment: ELISA, coated antigen 2 µg/ml
[3] = biological target: cynomolgus monkey c-Met ECD (SiNo. Biological, 90304-CO8H) (cynomolgus monkey); experiment: ELISA, antigen coated at 2 µg/ml, antibody 6.4 pM to 100 nM, anti-human IgG F(ab')2-HRP, TMB, O.D. at 450 nm [panel Cynomolgus monkey cMet]

Measured: binding

B1: hu8C4 (IgG1 humanized antibody having a hinge region of SEQ ID NO: 38 in hu8C4-1) (antibody, V domains shown)
VH: EVQLVESGGGLVQPGGSLRLSCAASGYTFSDYYINWVRQAPGKGLEWIGEIFPGSGNTHFSARFKGRATLSADKSKNTAYLQMNSLRAEDTAVYYCAGGDYGFLYWGQGTLVTVSS
VL: DIQMTQSPSSLSASVGDRVTITCGASENIYGALNWYQQKPGKAPKLLIYGATNLADGVPSRFSGSGSGRDFTFTISSLQPEDIATYYCQNVLSSPYTFGQGTKVEIK
binds: all assays above
